Paper PMC13043726, “SFPQ directs histone H3.3 deposition to R-loops in DNA repeats to protect genome stability”
Results are given in words; binding and its absence hold for the method and conditions named. For some assays here: In cells and extracts the contact can be indirect. Some results given as binding are weak or reduced against the parent protein; the word gives no strength. For some assays here: Tags and fused reporters may be left off the sequences shown.

The chains behind the UniProt entries cited, without tags or fusion partners.
UniProt Q9UER7: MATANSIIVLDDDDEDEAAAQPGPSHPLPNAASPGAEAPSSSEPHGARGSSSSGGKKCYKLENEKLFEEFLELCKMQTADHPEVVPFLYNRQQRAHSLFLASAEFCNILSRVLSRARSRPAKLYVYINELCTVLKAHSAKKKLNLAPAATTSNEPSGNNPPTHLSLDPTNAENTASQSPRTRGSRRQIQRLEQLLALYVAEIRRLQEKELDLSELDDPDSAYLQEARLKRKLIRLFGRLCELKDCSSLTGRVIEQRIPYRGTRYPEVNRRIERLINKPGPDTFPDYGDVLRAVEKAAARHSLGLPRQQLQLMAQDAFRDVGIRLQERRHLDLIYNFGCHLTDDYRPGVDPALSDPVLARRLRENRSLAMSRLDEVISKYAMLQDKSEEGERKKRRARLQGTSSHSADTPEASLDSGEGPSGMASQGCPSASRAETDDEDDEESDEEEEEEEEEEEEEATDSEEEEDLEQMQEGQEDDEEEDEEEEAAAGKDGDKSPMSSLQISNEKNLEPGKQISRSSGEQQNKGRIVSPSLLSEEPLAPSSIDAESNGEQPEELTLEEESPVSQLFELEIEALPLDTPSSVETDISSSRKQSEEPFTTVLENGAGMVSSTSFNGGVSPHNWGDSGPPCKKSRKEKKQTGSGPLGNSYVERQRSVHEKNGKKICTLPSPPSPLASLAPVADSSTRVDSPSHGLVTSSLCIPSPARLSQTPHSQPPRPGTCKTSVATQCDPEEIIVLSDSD

Tests used:
[1] = molecular target: T1, endogenous SFPQ (human (endogenous in U-2 OS)) (UniProt P23246); experiment: co-IP; endogenous proteins in U-2 OS, specific antibodies; IP buffer 50 mM Tris pH 8.0, 150 mM NaCl, 1% NP-40, 5 mM EDTA, 5% glycerol; western blot
T1 sequence: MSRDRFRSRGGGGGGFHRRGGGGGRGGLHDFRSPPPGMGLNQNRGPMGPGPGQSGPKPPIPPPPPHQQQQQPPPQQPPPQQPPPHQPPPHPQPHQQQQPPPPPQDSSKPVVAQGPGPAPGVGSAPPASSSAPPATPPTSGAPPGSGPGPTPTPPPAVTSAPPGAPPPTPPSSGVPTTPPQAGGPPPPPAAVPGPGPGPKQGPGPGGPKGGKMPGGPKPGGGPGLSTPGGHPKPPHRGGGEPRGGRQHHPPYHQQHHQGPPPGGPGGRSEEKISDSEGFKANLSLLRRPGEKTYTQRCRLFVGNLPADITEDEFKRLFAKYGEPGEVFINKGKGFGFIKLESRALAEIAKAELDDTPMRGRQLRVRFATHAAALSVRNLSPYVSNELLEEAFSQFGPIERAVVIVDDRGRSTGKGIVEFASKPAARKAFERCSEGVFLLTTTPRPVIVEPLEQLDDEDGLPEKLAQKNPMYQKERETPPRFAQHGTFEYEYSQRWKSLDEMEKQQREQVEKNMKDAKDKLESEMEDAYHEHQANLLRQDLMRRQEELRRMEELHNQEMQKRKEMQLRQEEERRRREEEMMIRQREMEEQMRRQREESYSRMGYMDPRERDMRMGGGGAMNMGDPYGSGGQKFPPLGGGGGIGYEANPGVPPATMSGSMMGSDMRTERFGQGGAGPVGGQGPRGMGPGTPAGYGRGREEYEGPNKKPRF

[2] = molecular target: T1, endogenous SFPQ (human (endogenous in U-2 OS)); experiment: co-IP; anti-SFPQ ChIP of formaldehyde-cross-linked, sonicated chromatin; cross-links reversed; western blot for DAXX; cell line not stated for this panel
[3] = molecular target: T2, myc-tagged human SFPQ, full length (human) (UniProt P23246); experiment: co-IP; myc-SFPQ and HA-DAXX overexpressed in H1299; reciprocal immunoprecipitation; IP buffer 50 mM Tris pH 8.0, 150 mM NaCl, 1% NP-40, 5 mM EDTA, 5% glycerol; western blot
T2 sequence: T1 sequence

[4] = molecular target: T3, recombinant His6-myc-tagged full-length human SFPQ (human) (UniProt P23246); experiment: pull-down; 10 ug His6-myc-SFPQ held on c-myc magnetic beads, 5 ug GST-DAXX-HA added; SEC buffer (20 mM Tris-HCl pH 8.0, 300 mM NaCl, 0.5 mM TCEP, 10% glycerol), 4 °C, 2 h; western blot; both purified
T3 sequence: T1 sequence

[5] = molecular target: HA-tagged DAXX, full length (UniProt Q9UER7); experiment: co-IP; myc-tagged SFPQ versions and full-length HA-DAXX transiently expressed in U-2 OS; IP buffer 50 mM Tris pH 8.0, 150 mM NaCl, 1% NP-40, 5 mM EDTA, 5% glycerol; western blot

endogenous Death Domain-Associated Protein (DAXX) (from UniProt Q9UER7 1-740)
binding [1]: binds | binding [2]: binds

HA-tagged DAXX, full length (from UniProt Q9UER7 1-740)
binding [3]: binds

recombinant GST-tagged DAXX-HA (from UniProt Q9UER7 1-740)
binding [4]: binds

B1: SFPQ proline-rich P-domain fused to GFP and a nuclear localization signal, myc-tagged (domain or fragment, UniProt P23246 105-204)
chain: DSSKPVVAQGPGPAPGVGSAPPASSSAPPATPPTSGAPPGSGPGPTPTPPPAVTSAPPGAPPPTPPSSGVPTTPPQAGGPPPPPAAVPGPGPGPKQGPGP
binding [5]: binds
